3 sequences from publication doi:10.1101/2025.08.25.672131 can be followed below.

By UniProt entry, the sequences of proteins in these tests, tags left out. Residues count along the entry.
UniProt Q16649, 67-105, stated change not applied: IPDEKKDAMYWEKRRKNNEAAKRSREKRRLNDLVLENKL
UniProt P49715, 276-314, stated change not applied: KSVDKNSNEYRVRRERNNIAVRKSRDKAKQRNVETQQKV
UniProt P17676, 265-303, stated change not applied: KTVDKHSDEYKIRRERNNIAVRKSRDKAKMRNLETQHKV
UniProt P01100, 131-169, stated change not applied: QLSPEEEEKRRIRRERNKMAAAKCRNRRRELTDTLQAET
UniProt P17535, 262-300, stated change not applied: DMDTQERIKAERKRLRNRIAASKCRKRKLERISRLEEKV

Construct, isoform or probe ends are uncertain for at least one entry. The comparison behind a weaker result is the experiment's own reference, which may not be listed here. For some of these results: At least one verdict was read from the data and is not stated in words by the source. For some of these results: Tags and fusion partners may be left off the protein sequences shown.

Common to all, as to experiment: fluorescence anisotropy
Series [1] addresses NFIL3 bZIP-ΔLZ (human) (UniProt Q16649). The settings on record: Kd tens to hundreds of uM, value only in figure.
For series [2], the target named is CEBPa bZIP-ΔLZ (human) (UniProt P49715). The settings on record: Kd tens to hundreds of uM, value only in figure.
Series [3] has as its target CEBPb bZIP-ΔLZ (human) (UniProt P17676). Particulars: Kd tens to hundreds of uM, value only in figure.
The target of series [4] is MafG bZIP-ΔLZ (human) (UniProt O15525). Particulars: Kd tens to hundreds of uM, value only in figure.
The target of series [5] is T1, ATF2 bZIP-ΔLZ (human) (UniProt P15336).
T1 sequence (looked up, limits assumed): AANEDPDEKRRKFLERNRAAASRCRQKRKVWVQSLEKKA
Particulars: Kd tens to hundreds of uM, value only in figure.

Series [6] has as its target Fos bZIP-ΔLZ (human) (UniProt P01100). Particulars: Kd tens to hundreds of uM, value only in figure.
The target in series [7] is JunD bZIP-ΔLZ (human) (UniProt P17535). Particulars: Kd >50-fold above Jun, value only in figure.

As for “CCGGCCAATCTATT (double strand) [Alexa Fluor 488 target for CEBPa, CEBPb, NFIL3]”, the binding result in series [1], in series [2] and in series [3] was “binds more weakly” in each case.
As for “CCTGACGTCATCCG (double strand) [Alexa Fluor 488-CRE 14 bp (ATF2, MafG target)]”, the binding result in series [4] and in series [5] was “binds more weakly” throughout.
Turning to “GGATGAGTCATTGG (double strand) [Alexa Fluor 488 target for Jun, JunD, Fos]”, the binding result in series [6] and in series [7] was “binds more weakly” each time.
